Measurements reported in PubChem BioAssay AID504774 (Drosophila RNAi Screening Center, 2011)
Purpose: 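Knock-downs that shift viability of MMS-exposed cells relative to untreated ones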 (primary screen). System: Drosophila Kc167 cells. Reagents: long dsRNA against Drosophila genes, about 0.25 µg dsRNA per well. Timing: about 6 days: 3 days knock-down, then 3 days with or without MMS. Challenge: methyl methanesulphonate 0.004% (w/v) for 3 days after knock-down. Measurement: 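Viability in wells given MMS, read as ATP luminescence, normalised by quantiles plate by plate and averaged across replicates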. Scale: mean viability with MMS: higher = more surviving cells after MMS.
The deposit covers about 23,000 reagents; below is an unselected part of those that have a named target and a result. 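Values are quantile-normalised luminescence on an arbitrary scale; higher means more cells surviving MMS.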 A plus sign joins genes that one reagent is predicted to hit. Not all columns of the deposit are shown. No sequences are given here.

target gene	amplicon	mean viability with MMS
AP-1mu	DRSC14089	3.50e6
Coq8	DRSC19900	3.42e6
Lpt	DRSC04291	3.41e6
Lpt	DRSC04515	3.38e6
CG30087	DRSC21677	3.70e6
kri	DRSC10515	3.67e6
Gr10b	DRSC19477	3.44e6
lark	DRSC11362	3.27e6
Rsod	DRSC15424	3.49e6
ND-B17.2	DRSC00577	3.51e6
RhoGEF3	DRSC08351	3.55e6
RhoGEF3	DRSC08352	3.73e6
CG14282	DRSC14763	3.49e6
Gr66a	DRSC10783	3.56e6
CG9662	DRSC00723	3.53e6
Drep3	DRSC06312	3.63e6
Drep3	DRSC07529	1.77e6
Drep3	DRSC22344	3.58e6
mRpL40	DRSC15749	3.66e6
Hmt-1	DRSC15555	3.45e6
CG10602	DRSC02075	3.47e6
grass	DRSC15911	3.69e6
Hex-A	DRSC18259	3.49e6
Es2	DRSC18663	3.48e6
defl	DRSC10300	3.15e6
CG7215 + Prx5	DRSC16214	3.45e6
CG7215 + Prx5	DRSC16215	3.51e6
Wsck	DRSC13682	3.61e6
Cont	DRSC12149	3.56e6
lncRNA:CR41601	DRSC22158	3.52e6
CG9570	DRSC20687	3.64e6
Efa6	DRSC13569	3.56e6
Efa6	DRSC15312	3.25e6
Efa6	DRSC16141	3.39e6

Continued, starting with the last 4 of the part before.
target gene	amplicon	mean viability with MMS
CG9570	DRSC20687	3.64e6
Efa6	DRSC13569	3.56e6
Efa6	DRSC15312	3.25e6
Efa6	DRSC16141	3.39e6
CG12644 (retired record)	DRSC17850	3.66e6
Gr64b	DRSC08444	3.58e6
CG32249	DRSC08101	3.53e6
CG32249	DRSC08177	3.77e6
CG32249	DRSC22444	3.53e6
Tsen2	DRSC01557	3.47e6
CG2680	DRSC18466	3.48e6
CG32333	DRSC08627	3.67e6
CG32333	DRSC08629	3.43e6
CG11454	DRSC00310	3.31e6
EMC1	DRSC15455	3.30e6
Cog3	DRSC00585	3.50e6
LRP1	DRSC07238	3.59e6
CG12605	DRSC08286	3.46e6
Art8	DRSC02530	3.70e6
Orct	DRSC16777	3.51e6
Timp	DRSC17082	3.63e6
AstA	DRSC14634	3.40e6
shakB	DRSC20492	3.57e6
shakB	DRSC20585	3.54e6
shakB	DRSC22817	3.53e6
Pdha	DRSC18413	3.36e6
FoxK	DRSC09859	3.58e6
ovm + CG31975	DRSC22146	3.62e6
CG33477	DRSC22934	3.43e6
CG18063	DRSC01968	3.47e6
CG6696	DRSC20004	3.54e6
CG6052	DRSC10574	3.66e6
Cals	DRSC17196	3.70e6
Cals	DRSC21661	3.55e6
gw	DRSC17135	3.32e6
gw	DRSC17160	3.23e6
eIF4E6	DRSC14853	3.41e6
peng	DRSC20583	3.56e6
